Measured values from patent US20100291160A1, “PHARMACEUTICAL SYSTEM FOR TRANS-MEMBRANE DELIVERY” (priority 2009, published 2010).
Where a name gives a salt, the structure may show the parent alone.

Assay: in vitro diffusion of formulation across membrane mounted on vial
Conditions: pH found to produce rapid diffusion across the membrane; pH adjusted with sodium bicarbonate or citric acid

CN1[C@@H]2CC[C@H]1C[C@@H](OC(=O)C(CO)c1ccccc1)C2 (stereo partly shown) [Atropine sulfate]
Optimal pH Conditions with Experimental Formulation: pH 6.5 to 5.0
